Results from patent publication US10167322B2, “Engineered albumin binding polypeptide” (AFFIBODY AB, priority 2013, dated 2019).
Part of at least one peptide drawing is inferred or uncertain, most often the ends. Some compounds share one wording; it may come from a single statement. Starred links: 1 amine or outer side, 2 acyl side, 3 side chain; linkers in the order of their positions; H or OH if unused. Positions of bridges follow the written chain, without caps; N, C: chain ends. No end group written: not given here. Pyridine(2,6-diCH2) = c1cc(C[*:1])nc(C[*:2])c1; mXylylene = c1cc(C[*:1])cc(C[*:2])c1; oXylylene = c1ccc(C[*:2])c(C[*:1])c1

By UniProt entry, the sequences of proteins in these tests, tags left out. Residues count along the entry.
UniProt P02768, 25-609: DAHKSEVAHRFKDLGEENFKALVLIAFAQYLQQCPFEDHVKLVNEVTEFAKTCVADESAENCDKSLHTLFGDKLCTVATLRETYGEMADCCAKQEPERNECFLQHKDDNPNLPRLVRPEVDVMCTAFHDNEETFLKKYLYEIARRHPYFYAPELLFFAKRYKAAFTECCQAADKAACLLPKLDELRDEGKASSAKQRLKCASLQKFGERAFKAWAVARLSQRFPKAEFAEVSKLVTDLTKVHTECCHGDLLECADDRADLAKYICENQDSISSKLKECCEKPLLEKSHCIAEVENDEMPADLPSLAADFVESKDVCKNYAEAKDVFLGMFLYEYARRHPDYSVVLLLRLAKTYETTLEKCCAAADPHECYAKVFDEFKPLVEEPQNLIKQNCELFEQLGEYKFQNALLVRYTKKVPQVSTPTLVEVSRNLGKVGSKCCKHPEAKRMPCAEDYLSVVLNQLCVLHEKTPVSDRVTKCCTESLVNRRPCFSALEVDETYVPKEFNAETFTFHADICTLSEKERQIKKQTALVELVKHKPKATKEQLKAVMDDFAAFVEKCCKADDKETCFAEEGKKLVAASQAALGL

Assays:
[1] = Circular dichroism variable temperature measurement (melting temperature); assay type: physicochemical; conditions: for Tm (melting temperature): CD at 221 nm, 20-90 °C, 50 μM in PBS pH 7.4; for Tm compared to the reference protein PEP07830: CD melting profiles
Experimental: Polypeptides were dissolved in PBS (pH 7.4) to a concentration of 50 μM (approximately 0.25 mg ml^−1) and CD spectra and melting curves were collected on a Jasco J-810 spectropolarimeter (Jasco) using a cell with an optical path-length of 1 mm. Variable temperature measurements, VTM, were used to determine Tm. In these measurements, the […] was measured at 221 nm from 20° C. to 90° C., with a temperature slope of 5° C. min^−1. The secondary structure of each variant was analyzed by recording a spectrum ranging from 250 to 195 nm at 20° C., both before and after VTM.

[2] = target: human serum albumin (HSA) (Homo sapiens, UniProt P02768); assay: SPR biosensor (ProteOn XPR36) screening of binding to immobilized HSA; conditions: 50 nM polypeptide, 2500 RU immobilized HSA, 25 °C
Experimental: Biosensor binding analyses were performed on a ProteOn XPR36 instrument (Bio-Rad) at 25° C. using PBST (150 mM NaCl, 8 mM Na2HPO4, 2 mM NaH2PO4, 0.005% Tween20, pH 7.4) as running buffer at a flow rate of 50 μl min^−1. An injection of 30 μl of 20 mM HCl at a flow rate of 100 μl min^−1 was used for chip regeneration. In a screening experiment, the binding of all polypeptide variants to human serum albumin (HSA) was investigated. The proteins were diluted to 50 nM in running buffer and injected over a chip surface with 2500 RU of immobilized HSA. The association was studied for 300 s and the dissociation was followed for 7200 s (2 h). For data analysis, all samples were double referenced; the signal from a blank surface was first subtracted from the signal from the respective protein, and secondly the signal from an injection of PBST (running buffer) over the HSA surface was subtracted.

Substance	Tm (melting temperature) [1] [°C]	Tm compared to the reference protein PEP07830 [1]	HSA binding in screening experiment [2]
LAEAKEAANAELDSYGCSDFYKRLIDKAKTVEGVEALKDAILAACP-NH2 (linker 17-45 via Pyridine(2,6-diCH2)) [PEP14788_CL_E]	~45	lower Tm compared to the reference protein PEP07830	–
LAEAKEAANAELDSYGCSDFYKRLIDKAKTVEGVEALKDAILAACP-NH2 (linker 17-45 via mXylylene) [PEP14788_CL_B]	~51	lower Tm compared to the reference protein PEP07830	–
LAEAKEAANAELDSYGCSDFYKRLIDKAKTVEGVEALKDAILAACP-NH2 (linker 17-45 via oXylylene) [PEP14788_CL_A]	~55	lower Tm compared to the reference protein PEP07830	high affinity for HSA
LAEAKEAANAELDSYGVSDFYKRLIDKAKTVEGVEALKDAILAALP-NH2 (C-terminus assumed) [PEP07830, reference compound]	58	–	–
